Measured values from patent US20240010720A1.
Results are given in words; binding and its absence hold for the method and conditions named. Some results given as binding are weak or reduced against the parent protein; the word gives no strength. Sequences can lack the tags named with a protein.

Molecular target: A-006 (IgG1 format)
Assay: competition flow cytometry: assay supernatants with A-006-like ABP (20 ug/ml) and titrated soluble IGSF11-ECD-His stained on fresh MDA-MB-231-luc/IGSF11 cells; blocked: ABP binding to IGSF11 on the cells

binding: binds
B1: His-tagged extracellular domain (ECD) of human IGSF11 (VSIG3) (receptor, not shown: small tags and cut ends)
chain: LEVSESPGSIQVARGQPAVLPCTFTTSAALINLNVIWMVTPLSNANQPEQVILYQGGQMFDGAPRFHGRVGFTGTMPATNVSIFINNTQLSDTGTYQCLVNNLPDIGGRNIGVTGLTVLVPPSAPHCQIQGSQDIGSDVILLCSSEEGIPRPTYLWEKLDNTLKLPPTATQDQVQGTVTIRNISALSSGLYQCVASNAIGTSTCLLDLQVISPQPRNIG
